Results are given in words; binding and its absence hold for the method and conditions named. In cells and extracts the contact can be indirect. Some binding calls cover weakened binding; strength is not graded here.
Target: Human epidermal growth factor receptor 2 (HER2) (human (endogenous in HCT116)) (UniProt P04626)
Test: co-IP; endogenous proteins in HCT116; cells with or without RC48; RIPA whole cell lysate (1 mg) with antibody overnight at 4 °C, protein A/G beads 4 h, five washes in lysis buffer, Western blot

Amino acid sequences for entries named in this document (tags omitted).
UniProt Q86WV6: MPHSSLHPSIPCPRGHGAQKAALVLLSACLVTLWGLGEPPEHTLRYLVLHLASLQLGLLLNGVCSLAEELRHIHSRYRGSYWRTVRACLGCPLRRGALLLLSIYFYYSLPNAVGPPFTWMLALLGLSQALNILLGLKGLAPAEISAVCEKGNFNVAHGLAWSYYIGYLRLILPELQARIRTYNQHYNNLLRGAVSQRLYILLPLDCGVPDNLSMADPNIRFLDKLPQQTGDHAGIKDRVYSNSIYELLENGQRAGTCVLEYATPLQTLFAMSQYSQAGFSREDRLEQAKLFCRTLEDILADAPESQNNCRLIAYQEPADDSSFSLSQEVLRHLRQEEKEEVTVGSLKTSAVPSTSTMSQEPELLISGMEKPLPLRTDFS

In the case of “STING (stimulator of interferon genes) (from UniProt Q86WV6 1-379)”, the binding was “binds”.

— PMC10449775
